Test results: patent US8415106B2, “Cell-based screen for agents useful for reducing neuronal demyelination or promoting neuronal remyelination” (Myelin Repair Foundation, Inc., priority 2005, dated 2013)

Assay: ELISA analysis of IFN-γ protein in the CNS of double transgenic mice
Format: in vivo
Details: for level of INF-γ (ELISA): EAE

B1: IFN-γ: pleotropic cytokine secreted by activated T lymphocytes and natural killer cells; recombinant rat IFN-γ added to cultures or transgenically expressed in mouse CNS (protein, UniProt P01581 23-156, looked up)
Interferon gamma: QGTLIESLESLKNYFNSSSMDAMEGKSLLLDIWRNWQKDGNTKILESQIISFYLRLFEVLKDNQAISNNISVIESHLITNFFSNSKAKKDAFMSIAKFEVNNPQIQHKAVNELIRVIHQLSPESSLRKRKRSRC
DOX− double transgenic mice, after 2 weeks of cuprizone treatment and removal of doxycycline
  IFN-γ in the forebrain: approximately 20 pg/mg
PID50, DOX− mice, control DOX+ 6.22
  level of INF-γ (ELISA): 40.24 pg/mg
Peak of disease PID 17, similar in DOX+ and DOX− mice
  level of INF-γ (ELISA): 60 pg/mg
